PubChem BioAssay AID1259425, University of Nebraska Medical Center – 2018
The whole screen tested about 14,000 reagents; below is a part drawn at random. Further read-outs or replicates are left out here. No sequences are given here. Not stated in the record: the time to read-out.

Purpose: 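Seek colon cancer weak points whose silencing resembles KSR1 loss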 (primary screen)
Cell system: HCT116 human colon cancer cells
Reagents: siRNA pool against human genes, 50 nM siRNA
Measurement: 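mRNA of six signature genes measured together by branched-DNA assay after 50 nM siRNA pool, blank removed, divided by geometric mean of two housekeeping genes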
Scale: BNIP3L mRNA: higher = more BNIP3L transcript after knockdown

gene | BNIP3L mRNA, set 1
GPD2 (glycerol-3-phosphate dehydrogenase 2) | 0.0937
GABRQ (gamma-aminobutyric acid type A receptor subunit theta) | 0.0563
CHRNG (cholinergic receptor nicotinic gamma subunit) | 0.0635
SELENOS (selenoprotein S) | 0.0393
PRR15L (proline rich 15 like) | 0.0514
IRGC (immunity related GTPase cinema) | 0.153
SNCA (synuclein alpha) | 0.056
ULK2 (unc-51 like autophagy activating kinase 2) | 0.0519
SH3PXD2A (SH3 and PX domains 2A) | 0.0817
ACSF2 (acyl-CoA synthetase family member 2) | 0.153
LYPLA2 (lysophospholipase 2) | 0.0956
RAD51D (RAD51 paralog D) | 0.14
CEP43 (centrosomal protein 43) | 0.0488
LRRC23 (leucine rich repeat containing 23) | 0.141
SLCO1B1 | 0.123
CFAP97 (cilia and flagella associated protein 97) | 0.136
LIFR (LIF receptor subunit alpha) | 0.0891
LSM1 (LSM1 homolog, mRNA degradation associated) | 0.0735
DNTT (DNA nucleotidylexotransferase) | 0.144
PBLD (phenazine biosynthesis like protein domain containing) | 0.0667
RNF7 (ring finger protein 7) | 0.0749
TRIM55 (tripartite motif containing 55) | 0.152
IQCN (IQ motif containing N) | 0.138
HSDL2 (hydroxysteroid dehydrogenase like 2) | 0.198
ETNPPL (ethanolamine-phosphate phospho-lyase) | 0.143
EBF2 (EBF transcription factor 2) | 0.139
ALDH1B1 (aldehyde dehydrogenase 1 family member B1) | 0.0746
PNPLA2 (patatin like domain 2, triacylglycerol lipase) | 0.15
KLHL18 (kelch like family member 18) | 0.123
RPS7 (ribosomal protein S7) | 0.22
NAP1L2 (nucleosome assembly protein 1 like 2) | 0.114
PCDHGB4 (protocadherin gamma subfamily B, 4) | 0.0853
SLC11A2 | 0.0931
SETD3 | 0.271
NPEPL1 (aminopeptidase like 1) | 0.265
NLRP12 (NLR family pyrin domain containing 12) | 0.0544
PMS1 (PMS1 homolog 1, mismatch repair system component) | 0.0461
TRIM31 (tripartite motif containing 31) | 0.273
RHCE (Rh blood group CcEe antigens) | 0.159
ZNF211 (zinc finger protein 211) | 0.169
ROPN1L (rhophilin associated tail protein 1 like) | 0.0704
FOXA1 (forkhead box A1) | 0.0596
DHCR7 (7-dehydrocholesterol reductase) | 0.158
CPN2 (carboxypeptidase N subunit 2) | 0.127
NPAS3 (neuronal PAS domain protein 3) | 0.167
PFAS (phosphoribosylformylglycinamidine synthase) | 0.0841
TAFAZZIN (tafazzin, phospholipid-lysophospholipid transacylase) | 0.137
EPN2 (epsin 2) | 0.175
PDP1 (pyruvate dehydrogenase phosphatase catalytic subunit 1) | 0.101
TRIB3 (tribbles pseudokinase 3) | 0.223

No new results follow: an excerpt of the list.
gene | BNIP3L mRNA, set 1
GABRQ (gamma-aminobutyric acid type A receptor subunit theta) | 0.0563
CHRNG (cholinergic receptor nicotinic gamma subunit) | 0.0635
SELENOS (selenoprotein S) | 0.0393
